Laboratory results reported in PubChem BioAssay AID1347075 (National Center for Advancing Translational Sciences (NCATS), 2019).
In all, about 400,000 compounds went through this assay and about 5,500 (1.4%) were called active. Inconclusive means that the source gave no clear call. Such entries were picked first, then a sample of the others. Calls come from the whole dose curve; as a rule, active = well fitted cell-killing curve with a large enough effect; inconclusive = small, poorly fitted or top-dose-only effect, or effect the other way; inactive = flat fitted curve, though single readings scatter. A potency beside an inconclusive call is a rough fit, not a confirmed value.

Experiment: qHTS assay for MDR1-selective chemotherapeutics: Primary screen using the parental adenocarcinoma cell KB-3-1; note: nearly all actives have a fitted effect of over 60% in size
Settings: KB-3-1 viability, CellTiter-Glo ATP luminescence, 72 h; activity change, negative = cytotoxic: at 46.1 µM (top of the series)
Outline: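 KB-3-1 parental drug-naive adenocarcinoma cells in DMEM/10% FBS, incubated 72 h at 37 C with pin-transferred compounds across a concentration series. Viability by CellTiter-Glo luminescence; concentration-response curves fitted after normalization.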
% is set by controls: 0 for no effect and ±100 for the full control effect; potency is the fitted concentration of half-maximal effect.

Question: For COc1cccc(OC)c1C(=O)NC(=S)Nc1ccc2oc(=O)ccc2c1, which Potency is on record?
Answer: The Potency was inconclusive: 18.4 µM [rising, single point].

Question: With CCC(=O)NC(c1cccs1)c1ccc2cccnc2c1O (stereo not given) as the compound, how does the “activity change, negative = cytotoxic” value read?
Answer: Its value is inactive: -0.264%.

Question: For C=CCN1C(=O)c2ccc(C(=O)OCC(=O)Nc3ccccc3OC)cc2C1=O, which Potency is on record?
Answer: Its Potency is inconclusive: 5.17 µM [rising, full curve].

Question: For CCNC(=S)N1CCn2c(nc3ccccc32)C1, which Potency is on record?
Answer: Its Potency is inconclusive: 13 µM [rising, partial curve].

Question: For CCCn1c(CN2CCN(C(=O)OCC)CC2)nc2cc(NC(=O)C(C)C)ccc21, which Potency is on record?
Answer: The Potency was inconclusive: 16.4 µM [cytotoxic, partial curve, poor fit].

Question: With Cc1ccc(COc2cccc3c2CCN(Cc2ccc(F)cc2)C3=O)cc1 as the compound, how does the Potency read?
Answer: The Potency was inconclusive: 18.4 µM [cytotoxic, single point].

Question: With O=C(COc1ccc(Cl)cc1[N+](=O)[O-])NC1CCCCC1 as the compound, how does the Potency read?
Answer: Its Potency is inconclusive: 29.1 µM [cytotoxic, single point].

Question: For CC(C)C[C@H]1COc2cc(N3CCN(Cc4ccccc4F)CC3)ccc2S(=O)(=O)N1, which Potency is on record?
Answer: Its Potency is inconclusive: 16.4 µM [cytotoxic, partial curve, poor fit].

Question: With COc1ccc(-c2nnc3n2CCCCC3)cc1OC as the compound, how does the “activity change, negative = cytotoxic” value read?
Answer: Its value is inactive: 4.76%.

Question: Which Potency does the source give for O=C(N/N=C/c1ccc2c(c1)OCO2)c1cc(-c2ccc(F)cc2)nc2ccccc12 here?
Answer: The Potency was inconclusive: 25.9 µM [cytotoxic, single point].

Question: With CC(=O)c1cccc(-c2ccc3c(c2)C(C)(Cc2ccccc2C#N)C(=O)N3)c1 (stereo not given) as the compound, how does the Potency read?
Answer: Its Potency is inconclusive: 25.9 µM [cytotoxic, single point].

Question: With Cc1cc2nc(-c3ccc(SCC(=O)N4CCOCC4)nc3)[nH]c2cc1C as the compound, how does the Potency read?
Answer: Its Potency is inconclusive: 16.4 µM [cytotoxic, single point].

Question: With COc1ccc(-c2nn3c(-c4ccccn4)nnc3s2)cc1OC as the compound, how does the Potency read?
Answer: The Potency was inconclusive: 8.2 µM [rising, partial curve, poor fit].

Question: With O=C(Nc1ccc(Cl)c(C(F)(F)F)c1)NC1CC2CCCC(C1)N2Cc1ccccc1 (stereo not given) as the compound, how does the Potency read?
Answer: Its Potency is inconclusive: 18.4 µM [cytotoxic, single point].

Question: For CCCCn1c(=O)n(C)c(=O)c2c3c(sc21)COC(C)(C)C3, which Potency is on record?
Answer: The Potency was inconclusive: 18.4 µM [cytotoxic, single point].

Question: Which “activity change, negative = cytotoxic” value does the source give for COc1cc(OC)c(OC)cc1CN1CCN(C(=O)CC(C)C)CC1 here?
Answer: The value was inactive: 6.31%.

Question: Which Potency does the source give for CCCCCCc1cc2cc(-c3nnc(-c4cc(OC)c(OC)c(OC)c4)o3)c(=O)oc2cc1O here?
Answer: Its Potency is inconclusive: 18.4 µM [cytotoxic, single point].

Question: With Nc1nonc1-n1nnc(C(=O)N/N=C/c2ccccc2O)c1CN1CCCC1 as the compound, how does the Potency read?
Answer: The Potency was inconclusive: 29.1 µM [cytotoxic, single point].

Question: For c1ccc(CNc2nc(N3CCN(Cc4ccccc4)CC3)nc3ccccc23)cc1, which Potency is on record?
Answer: The Potency was inconclusive: 23.1 µM [cytotoxic, single point].

Question: Which “activity change, negative = cytotoxic” value does the source give for CC1(c2ccccc2)NC(=O)N(CC(=O)Nc2ccc([N+](=O)[O-])cc2)C1=O (stereo not given) here?
Answer: The value was inactive: -1.69%.

Question: For O=C(/C=C/c1ccc(Cl)cc1Cl)Nc1cccc(S(=O)(=O)NC2=NCCC2)c1, which Potency is on record?
Answer: The Potency was inconclusive: 23.1 µM [cytotoxic, partial curve, poor fit].

Question: Which Potency does the source give for O=C(CN1C(=O)NC2(CCCC2)C1=O)Nc1nc2ccccc2[nH]1 here?
Answer: Its Potency is inconclusive: 0.0411 µM [rising, full curve].

Question: For CCOc1ccccc1C(=O)Nc1nnc(Cc2ccc(OC)c(OC)c2)s1, which Potency is on record?
Answer: The Potency was inconclusive: 20.6 µM [cytotoxic, partial curve].

Question: Which Potency does the source give for O=C(Nc1nc(-c2cccs2)cs1)c1ccc([N+](=O)[O-])o1 here?
Answer: The Potency was active: 6.51 µM.

Question: For COc1ccccc1-n1c(N)cc(=O)nc1SCC(=O)Nc1cc(C)on1, which “activity change, negative = cytotoxic” value is on record?
Answer: The value was inactive: 8.3%.

Question: With CCOC(=O)c1oc2ccc(S(=O)(=O)n3nc(-c4ccccc4OC)cc3N)cc2c1C as the compound, how does the Potency read?
Answer: The Potency was inconclusive: 29.1 µM [cytotoxic, single point].

Question: Which “activity change, negative = cytotoxic” value does the source give for CC1(C(=O)Nc2cnc3ccccc3c2)CCN1C(=O)C/C=C/c1ccccc1 (stereo not given) here?
Answer: Its value is inactive: 0%.

Question: For CC(NC(=O)c1ccc(Cn2cc([N+](=O)[O-])cn2)o1)c1ccccc1 (stereo not given), which “activity change, negative = cytotoxic” value is on record?
Answer: Its value is inactive: -2.33%.

Question: For Cc1cc(C)nc(N2CCCC(C(=O)NC(C)C)C2)n1 (stereo not given), which “activity change, negative = cytotoxic” value is on record?
Answer: The value was inactive: -0.821%.

Question: For COc1cccc(-n2c(SCC(=O)Nc3cc(C)ccc3C)nc3c(oc4ccccc43)c2=O)c1, which “activity change, negative = cytotoxic” value is on record?
Answer: Its value is inactive: 9.78%.

Question: With CCN(c1ccccc1)S(=O)(=O)c1ccc(OC)c(NC(=O)c2ccccc2OC)c1 as the compound, how does the “activity change, negative = cytotoxic” value read?
Answer: Its value is inactive: -6.9%.

Question: For CC1CCN(C(=O)CSc2nc(=O)n3cc(Cl)ccc3n2)CC1, which Potency is on record?
Answer: The Potency was inconclusive: 18.4 µM [cytotoxic, partial curve, poor fit].

Question: Which Potency does the source give for O=C(Nc1nnc(C2COc3ccccc3O2)o1)c1ccc(F)cc1 (stereo not given) here?
Answer: Its Potency is inconclusive: 20.6 µM [cytotoxic, partial curve, poor fit].

Question: With O=C(Nc1cccnc1)Nc1ccccn1 as the compound, how does the Potency read?
Answer: The Potency was inconclusive: 18.4 µM [rising, single point].

Question: With COc1ccc(-c2cc(C(=O)Oc3ccccc3)c3cc(C)ccc3n2)cc1 as the compound, how does the Potency read?
Answer: The Potency was inconclusive: 14.6 µM [cytotoxic, partial curve].

Question: With CCOc1ccc(CCN2C(=S)N([C@@H](CC(C)C)CN3CCC[C@@H]3CN3C(=S)NC[C@@H]3CC(C)C)C[C@@H]2Cc2ccc(O)cc2)cc1 as the compound, how does the Potency read?
Answer: Its Potency is inconclusive: 29.1 µM [cytotoxic, single point].

Question: Which Potency does the source give for CCOC(=O)c1ccc(N2C(=O)c3n[nH]c(C)c3C2c2ccc(OC)cc2OC)cc1 (stereo not given) here?
Answer: Its Potency is inconclusive: 29.1 µM [cytotoxic, single point].

Question: With Cc1cccc(N/N=C(\C(N)=O)C2=NC(C)(C)Cc3ccccc32)c1 as the compound, how does the Potency read?
Answer: The Potency was active: 16.4 µM.

Question: Which Potency does the source give for CCc1cc(-c2nnn(CCC3COCCO3)c2CC)ccc1-c1cn(Cc2ccc3ccccc3c2)nn1 (stereo not given) here?
Answer: Its Potency is inconclusive: 20.6 µM [cytotoxic, single point].

Question: With Cc1nnc(N2CCCC(C(=O)NCc3ccc(OC(C)C)cc3)C2)c2nn(-c3ccccc3)c(C)c12 (stereo not given) as the compound, how does the “activity change, negative = cytotoxic” value read?
Answer: Its value is inactive: -21.3%.

Question: Which Potency does the source give for CCOC(=O)c1c(C)sc(Sc2ccc(Cl)cc2[N+](=O)[O-])c1OC here?
Answer: Its Potency is inconclusive: 23.1 µM [cytotoxic, partial curve].

Question: With NC(=O)c1nsc(C(=O)N(c2ccc3c(c2)OCCO3)C(C(=O)NCC2CCCO2)c2ccc(F)cc2)c1N (stereo not given) as the compound, how does the Potency read?
Answer: Its Potency is inconclusive: 11.6 µM [cytotoxic, single point].

Question: With O=C1[C@H]2[C@H](C=CC[C@H]2C(=O)N2CCN(c3ccccc3)CC2)CCN1Cc1ccccc1 as the compound, how does the Potency read?
Answer: Its Potency is inconclusive: 29.1 µM [cytotoxic, single point].

Question: Which Potency does the source give for CCOc1cc(/C=N/NC(=O)Cn2nc([N+](=O)[O-])cc2C)cc(Br)c1OCc1ccccc1F here?
Answer: Its Potency is inconclusive: 29.1 µM [cytotoxic, single point].

Question: With O=C(CCN1CCN(c2ccccc2)CC1)N/N=C/c1ccc([N+](=O)[O-])o1 as the compound, how does the Potency read?
Answer: Its Potency is inconclusive: 29.1 µM [rising, single point].

Question: With c1ccc(Cn2c(CSc3nnnn3-c3ccccc3)nc3ccccc32)cc1 as the compound, how does the “activity change, negative = cytotoxic” value read?
Answer: The value was inactive: 16.8%.

Question: With COc1ccccc1NC(=O)C(C)OC(=O)CCSc1ccc(F)cc1 (stereo not given) as the compound, how does the Potency read?
Answer: Its Potency is inconclusive: 0.0092 µM [cytotoxic, full curve, poor fit].

Question: With COc1ccc(-n2nc(C(=O)NCC(=O)NCc3ccccc3OC)c3ccccc3c2=O)c(OC)c1 as the compound, how does the Potency read?
Answer: Its Potency is inconclusive: 14.6 µM [rising, partial curve, poor fit].

Question: For CCCn1c(CC)nc([N+](=O)[O-])c1Sc1ccc(F)cc1, which Potency is on record?
Answer: Its Potency is inconclusive: 29.1 µM [cytotoxic, single point].

Question: Which Potency does the source give for CCCCNC(=O)C1C(c2ccc(C(F)(F)F)cc2)=Nc2ccccc2N1C(=O)c1ccc2nc(C)[nH]c2c1 (stereo not given) here?
Answer: The Potency was inconclusive: 23.1 µM [cytotoxic, single point].

Question: Which Potency does the source give for O=C1C(Cc2ccc(Br)cc2)SC(=Nc2ccccc2)N1c1ccccc1 (stereo not given) here?
Answer: Its Potency is inconclusive: 0.651 µM [cytotoxic, full curve, poor fit].

Question: With CN(C)c1ccc(N=C/C=C2/N(C)c3ccccc3C2(C)C)cc1 as the compound, how does the Potency read?
Answer: Its Potency is inconclusive: 29.1 µM [cytotoxic, single point].

Question: Which activity change, negative = cytotoxic does the source give for CC1CN(C(=O)COC(=O)c2cc(Cl)ccc2Cl)CC(C)O1 (stereo not given) here?
Answer: The activity change, negative = cytotoxic was inconclusive: 7.3%.

Question: Which “activity change, negative = cytotoxic” value does the source give for Cc1ccc(N(CC(=O)Nc2ccc(C)cc2C)S(=O)(=O)N2CCCC2)cc1 here?
Answer: Its value is inactive: -17.8%.

Question: With O=C(Cc1ccc(Cl)cc1)NCC(c1cccs1)S(=O)(=O)c1ccc(Cl)cc1 (stereo not given) as the compound, how does the Potency read?
Answer: The Potency was inconclusive: 20.6 µM [cytotoxic, single point].

Question: For O=C1OCC/C1=C\c1ccc2c(c1)OCO2, which “activity change, negative = cytotoxic” value is on record?
Answer: The value was inactive: 1.97%.

Question: For COc1ccc(C(=O)N/N=C/c2ccc(OC)c(CN3CCc4cc(OC)c(OC)cc4C3C)c2)cc1 (stereo not given), which Potency is on record?
Answer: The Potency was inconclusive: 14.6 µM [rising, single point].

Question: With CN(Cc1ccccc1)C(=O)C1CCN(Cc2cc3ccccc3n2Cc2ccccc2)CC1 as the compound, how does the Potency read?
Answer: The Potency was inconclusive: 2.31 µM [cytotoxic, partial curve].

Question: With O=[N+]([O-])c1ccc(Nc2ccc(F)cc2)nc1 as the compound, how does the “activity change, negative = cytotoxic” value read?
Answer: The value was inactive: 4.11%.

Question: Which Potency does the source give for O[C@H]1C[C@H](c2ccc(Cl)cc2)N(Cc2cccs2)C[C@@H]1n1cc(C2CC2)nn1 here?
Answer: Its Potency is inconclusive: 18.4 µM [cytotoxic, single point].

Question: For Cc1c2ccccc2cc(Cc2ccccc2)[n+]1C, which Potency is on record?
Answer: The Potency was active: 14.6 µM.

Question: For O=C(Nc1ccc(Cl)cc1)C1CCN(S(=O)(=O)c2ccc(Br)s2)CC1, which Potency is on record?
Answer: The Potency was inconclusive: 16.4 µM [cytotoxic, single point].

Question: For Cc1ccc(-c2nnc(SCC(=O)N/N=C/c3c(C)nn(-c4ccccc4)c3C)n2-c2ccc(C)cc2)cc1, which Potency is on record?
Answer: Its Potency is inconclusive: 29.1 µM [cytotoxic, single point].

Question: Which “activity change, negative = cytotoxic” value does the source give for CC(C)CN(C(=O)CCNC(=O)c1ccc(Cl)cc1)C1CCS(=O)(=O)C1 (stereo not given) here?
Answer: Its value is inactive: -5.33%.

Question: For CC(Sc1ccccn1)C(=O)Nc1ccc2c(c1)OCCO2 (stereo not given), which “activity change, negative = cytotoxic” value is on record?
Answer: Its value is inactive: 1.81%.
